Patent US12263155B2, “Combinations of monoamine oxidase inhibitors and serotonin receptor agonists and their therapeutic use” (Remedi, Inc., priority 2022, dated 2025)

Test: Exemplary administration of CX157, DMT and combinations: subjective effects
Type: in vivo
[1] = 0.03-0.07 mg/kg or 2.5-20 mg DMT freebase, 2-3 hours after 175 mg CX157
[2] = higher doses of DMT (0.2-0.6 mg/kg or 25-200 mg), 2-3 hours after 175 mg CX157

SMILES | subjective effects (175 mg CX157 alone, 2.5 hours after administration) | duration of smooth, steady, calm energy [1] | onset of subjective effects [1] | total duration of subjective effects [1] | subjective effects (25-100 mg DMT freebase in capsule alone, over 1 hour) | onset of psychedelic effects [2] | total duration of psychedelic effects [2]
O=S1(=O)c2ccc(F)cc2Oc2cc(OCC(F)(F)F)ccc21 [CX157, 3-fluoro-7(2,2,2-trifluorethoxy)phenoxathiine-10,10-dioxide] | No subjective effects | – | – | – | – | – | –
CN(C)CCc1c[nH]c2ccccc12 [DMT, N,N-dimethyltryptamine] | – | around 6 hours | around one hour | around 8 hours | No subjective effects | around 40 minutes | around 2 hours
